These are yes or no findings as the source states them, for the method shown. Some entries that bind do so weakly or less than the wild type.

This experiment deals with HBX2 gp140 (gp120+the extracellular portion of gp41) on CHO cells (CHO-gp140) (HIV, strain HBX2 (so in the source)) (UniProt P04578). The experiment is described as follows: flow cytometry on CHO-gp140 cells, antibody at 30 µg/mL, AlexaFluor 647 anti-human kappa detection. On the technique in general: A flow cytometer gives signals particle by particle.

B1: HIV02 IgG (HIV02G) (antibody, V domains shown)
VH: QVQLVQSGGQMKKPGESMRISCQASGYEFIDCTLNWVRLAPGRRPEWMGWLKPRGGAVNYARPLQGRVTMTRDVYSDTAFLELRSLTADDTAVYYCTRGKNCDYNWDFEHWGRGTPVTVSS
VL: EIVLTQSPGTLSLSPGETAIISCRTSQYGSLAWYQQRPGQAPRLVIYSGSTRAAGIPDRFSGSRWGPDYNLTIRNLESGDFGLYYCQQYEFFGQGTKVQVDI
With B1, the binding result was “binds”.

Source of the values: patent US20180118816A1.
